These are yes or no findings as the source states them, for the method shown. In cells and extracts the contact can be indirect. These calls come from enrichment with a bait or labelling near it, and not all partners need be listed.
What was measured:
[1] = target: full-length PARP1 tagged on the N-terminus with APEX2 (expressed in U2OS cells) (human) (UniProt P09874); experiment: proximity labelling; APEX2-PARP1 in SILAC-labelled U2OS cells; 500 uM biotin phenol 2 h, 1 mM H2O2 2 min, against no H2O2; nuclear extract, NeutrAvidin pull-down, LC-MS/MS; FDR < 1%
[2] = target: GFP-tagged TPX2, full length (expressed in U2OS cells) (UniProt Q9ULW0); experiment: affinity purification with mass spectrometry; GFP-TPX2 transiently expressed in U2OS; GFP-Trap beads, modified RIPA washes, on-bead digestion, label-free quantification against a GFP control
[3] = target: full-length PARP1 tagged on the N-terminus with APEX2 (expressed in HEK293T cells) (human) (UniProt P09874); experiment: proximity labelling; APEX2-PARP1 in HEK293T cells after olaparib or DMSO treatment; SILAC, NeutrAvidin pull-down, LC-MS/MS
[4] = target: GFP-tagged TPX2, full length (expressed in U2OS cells) (UniProt Q9ULW0); experiment: affinity purification with mass spectrometry; SILAC-based co-IP-MS of the N-terminal deletion mutant or full-length TPX2 in U2OS cells (Supplementary Figure S4d)
[5] = target: GFP-tagged TPX2, full length (expressed in U2OS cells) (UniProt Q9ULW0); experiment: affinity purification with mass spectrometry; GFP-TPX2; GFP-Trap beads, SILAC-based co-IP-MS (Supplementary Figure S4b)

The chains behind the UniProt entries cited, without tags or fusion partners.
UniProt P09874: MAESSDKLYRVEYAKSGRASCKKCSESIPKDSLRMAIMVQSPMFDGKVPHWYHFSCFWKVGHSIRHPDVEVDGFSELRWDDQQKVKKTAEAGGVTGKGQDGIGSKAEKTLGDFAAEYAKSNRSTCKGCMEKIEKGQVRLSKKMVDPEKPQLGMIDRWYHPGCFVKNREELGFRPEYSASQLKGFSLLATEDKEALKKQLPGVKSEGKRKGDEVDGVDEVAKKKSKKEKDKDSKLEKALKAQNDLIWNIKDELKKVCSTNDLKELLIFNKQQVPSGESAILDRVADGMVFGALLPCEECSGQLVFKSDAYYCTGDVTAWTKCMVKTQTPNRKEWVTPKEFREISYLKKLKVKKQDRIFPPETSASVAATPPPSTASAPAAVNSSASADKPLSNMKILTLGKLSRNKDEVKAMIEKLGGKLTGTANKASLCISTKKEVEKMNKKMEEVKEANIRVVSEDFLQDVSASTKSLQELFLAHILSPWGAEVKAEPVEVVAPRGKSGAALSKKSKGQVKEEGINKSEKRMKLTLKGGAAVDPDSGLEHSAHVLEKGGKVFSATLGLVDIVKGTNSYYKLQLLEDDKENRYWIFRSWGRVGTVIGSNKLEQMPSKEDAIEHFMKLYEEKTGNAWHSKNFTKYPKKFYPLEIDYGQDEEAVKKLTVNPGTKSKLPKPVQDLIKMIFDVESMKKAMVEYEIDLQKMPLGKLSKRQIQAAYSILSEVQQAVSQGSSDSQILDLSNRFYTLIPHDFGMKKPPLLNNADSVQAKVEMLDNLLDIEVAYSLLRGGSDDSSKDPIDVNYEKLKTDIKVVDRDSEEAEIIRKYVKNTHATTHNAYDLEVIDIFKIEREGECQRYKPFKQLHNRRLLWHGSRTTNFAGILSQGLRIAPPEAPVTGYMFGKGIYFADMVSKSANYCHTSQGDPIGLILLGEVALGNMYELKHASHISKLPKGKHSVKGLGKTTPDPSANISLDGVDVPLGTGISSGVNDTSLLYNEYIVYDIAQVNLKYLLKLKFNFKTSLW
UniProt Q9ULW0: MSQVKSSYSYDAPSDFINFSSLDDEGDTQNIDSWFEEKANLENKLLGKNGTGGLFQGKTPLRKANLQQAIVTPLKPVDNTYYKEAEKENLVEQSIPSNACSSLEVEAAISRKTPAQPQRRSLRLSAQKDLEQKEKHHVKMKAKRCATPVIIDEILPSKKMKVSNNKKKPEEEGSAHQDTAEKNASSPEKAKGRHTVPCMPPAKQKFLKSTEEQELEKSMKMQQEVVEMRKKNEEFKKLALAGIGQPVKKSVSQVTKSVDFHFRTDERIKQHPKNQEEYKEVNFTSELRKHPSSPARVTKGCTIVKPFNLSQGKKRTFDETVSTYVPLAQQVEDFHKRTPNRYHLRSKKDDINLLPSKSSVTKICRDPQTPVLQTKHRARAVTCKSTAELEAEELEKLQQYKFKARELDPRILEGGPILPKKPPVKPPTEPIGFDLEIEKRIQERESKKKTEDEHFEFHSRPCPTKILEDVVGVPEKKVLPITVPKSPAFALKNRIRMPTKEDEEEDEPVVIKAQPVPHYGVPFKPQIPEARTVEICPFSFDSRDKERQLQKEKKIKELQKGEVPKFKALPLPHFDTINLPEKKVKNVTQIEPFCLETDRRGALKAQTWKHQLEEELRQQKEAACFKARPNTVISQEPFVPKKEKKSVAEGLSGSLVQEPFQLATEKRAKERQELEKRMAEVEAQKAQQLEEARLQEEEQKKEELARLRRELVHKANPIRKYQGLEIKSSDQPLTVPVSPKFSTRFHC
UniProt Q86WJ1: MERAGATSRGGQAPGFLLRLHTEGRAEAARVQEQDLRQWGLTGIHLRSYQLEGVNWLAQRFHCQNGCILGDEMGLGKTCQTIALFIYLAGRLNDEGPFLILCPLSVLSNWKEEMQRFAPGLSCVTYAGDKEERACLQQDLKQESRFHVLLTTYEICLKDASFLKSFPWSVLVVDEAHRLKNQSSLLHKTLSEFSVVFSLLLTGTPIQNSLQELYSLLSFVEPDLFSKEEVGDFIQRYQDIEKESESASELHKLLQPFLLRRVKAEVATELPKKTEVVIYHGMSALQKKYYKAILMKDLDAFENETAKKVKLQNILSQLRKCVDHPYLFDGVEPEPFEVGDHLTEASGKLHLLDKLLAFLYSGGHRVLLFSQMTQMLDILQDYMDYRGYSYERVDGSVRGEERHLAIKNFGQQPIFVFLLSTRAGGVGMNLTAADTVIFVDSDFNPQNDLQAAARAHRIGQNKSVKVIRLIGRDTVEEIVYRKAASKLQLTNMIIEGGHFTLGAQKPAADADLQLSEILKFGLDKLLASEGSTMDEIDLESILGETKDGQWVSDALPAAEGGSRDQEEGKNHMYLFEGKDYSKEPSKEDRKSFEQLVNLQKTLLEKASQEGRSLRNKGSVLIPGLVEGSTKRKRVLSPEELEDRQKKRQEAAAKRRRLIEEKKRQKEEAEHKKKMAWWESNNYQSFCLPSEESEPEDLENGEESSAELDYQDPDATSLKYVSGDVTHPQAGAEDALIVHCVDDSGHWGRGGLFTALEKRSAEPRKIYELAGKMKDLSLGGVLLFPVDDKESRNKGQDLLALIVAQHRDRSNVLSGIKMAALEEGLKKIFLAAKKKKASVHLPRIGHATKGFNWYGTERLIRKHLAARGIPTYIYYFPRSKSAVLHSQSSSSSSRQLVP
UniProt Q14676: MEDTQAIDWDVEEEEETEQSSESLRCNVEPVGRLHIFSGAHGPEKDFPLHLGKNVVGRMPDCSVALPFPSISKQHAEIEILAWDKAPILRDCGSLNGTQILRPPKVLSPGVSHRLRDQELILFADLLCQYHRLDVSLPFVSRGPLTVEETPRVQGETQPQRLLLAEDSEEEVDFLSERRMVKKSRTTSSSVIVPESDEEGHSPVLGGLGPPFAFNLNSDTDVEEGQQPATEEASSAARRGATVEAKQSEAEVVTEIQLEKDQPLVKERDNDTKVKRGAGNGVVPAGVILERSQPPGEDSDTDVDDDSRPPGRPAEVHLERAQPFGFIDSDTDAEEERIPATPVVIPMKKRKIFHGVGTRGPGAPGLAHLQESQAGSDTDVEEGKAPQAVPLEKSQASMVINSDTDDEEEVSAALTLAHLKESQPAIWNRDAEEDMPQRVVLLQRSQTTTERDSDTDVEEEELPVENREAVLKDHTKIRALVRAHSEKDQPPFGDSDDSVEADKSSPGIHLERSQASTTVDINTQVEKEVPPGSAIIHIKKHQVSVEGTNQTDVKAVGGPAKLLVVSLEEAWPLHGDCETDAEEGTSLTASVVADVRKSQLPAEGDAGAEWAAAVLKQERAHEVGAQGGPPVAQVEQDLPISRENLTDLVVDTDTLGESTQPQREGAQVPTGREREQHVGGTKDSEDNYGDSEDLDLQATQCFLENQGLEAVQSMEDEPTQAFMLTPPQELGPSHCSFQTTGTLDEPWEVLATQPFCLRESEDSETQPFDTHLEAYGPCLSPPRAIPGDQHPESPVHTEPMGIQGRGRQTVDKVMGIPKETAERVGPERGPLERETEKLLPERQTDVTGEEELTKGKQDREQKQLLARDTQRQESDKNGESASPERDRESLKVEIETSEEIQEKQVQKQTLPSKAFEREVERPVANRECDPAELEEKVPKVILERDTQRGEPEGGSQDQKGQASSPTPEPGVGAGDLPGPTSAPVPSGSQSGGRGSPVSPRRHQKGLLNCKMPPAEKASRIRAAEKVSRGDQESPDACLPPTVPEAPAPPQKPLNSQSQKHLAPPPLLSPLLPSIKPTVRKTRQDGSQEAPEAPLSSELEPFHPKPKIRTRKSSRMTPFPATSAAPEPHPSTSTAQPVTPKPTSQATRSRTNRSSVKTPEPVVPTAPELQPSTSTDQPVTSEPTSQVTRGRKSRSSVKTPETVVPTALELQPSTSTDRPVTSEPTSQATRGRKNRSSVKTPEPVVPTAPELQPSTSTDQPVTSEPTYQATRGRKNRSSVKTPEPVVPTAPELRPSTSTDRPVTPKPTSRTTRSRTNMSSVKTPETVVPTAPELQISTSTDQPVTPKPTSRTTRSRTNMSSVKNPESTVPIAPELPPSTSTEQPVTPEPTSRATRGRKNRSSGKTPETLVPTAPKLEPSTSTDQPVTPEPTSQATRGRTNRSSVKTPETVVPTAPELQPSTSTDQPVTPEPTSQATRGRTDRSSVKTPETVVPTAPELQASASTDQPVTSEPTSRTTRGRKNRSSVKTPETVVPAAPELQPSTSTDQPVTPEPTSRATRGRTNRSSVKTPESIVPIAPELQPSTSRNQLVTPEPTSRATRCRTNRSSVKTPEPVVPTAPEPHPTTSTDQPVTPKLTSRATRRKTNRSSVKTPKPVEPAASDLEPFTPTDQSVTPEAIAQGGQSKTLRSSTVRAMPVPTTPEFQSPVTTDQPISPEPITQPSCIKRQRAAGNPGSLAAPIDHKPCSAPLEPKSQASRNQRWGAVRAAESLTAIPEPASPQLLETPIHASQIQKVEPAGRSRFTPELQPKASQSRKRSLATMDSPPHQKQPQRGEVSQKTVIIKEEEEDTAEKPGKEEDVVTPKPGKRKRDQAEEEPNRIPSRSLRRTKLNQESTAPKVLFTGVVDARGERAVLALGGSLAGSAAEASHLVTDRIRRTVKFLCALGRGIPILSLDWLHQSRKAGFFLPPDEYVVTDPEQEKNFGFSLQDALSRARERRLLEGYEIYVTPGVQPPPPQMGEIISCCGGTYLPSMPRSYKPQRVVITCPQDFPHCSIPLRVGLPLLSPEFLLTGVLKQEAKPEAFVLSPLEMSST
UniProt P35250: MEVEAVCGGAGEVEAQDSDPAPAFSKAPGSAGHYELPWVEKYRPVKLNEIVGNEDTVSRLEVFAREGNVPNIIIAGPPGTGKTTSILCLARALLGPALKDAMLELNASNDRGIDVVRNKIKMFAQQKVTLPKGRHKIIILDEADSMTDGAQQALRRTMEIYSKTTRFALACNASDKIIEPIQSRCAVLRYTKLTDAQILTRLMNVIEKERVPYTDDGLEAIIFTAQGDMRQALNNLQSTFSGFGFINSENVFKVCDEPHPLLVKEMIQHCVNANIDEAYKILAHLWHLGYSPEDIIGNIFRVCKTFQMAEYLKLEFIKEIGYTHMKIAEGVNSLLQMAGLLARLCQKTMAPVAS
UniProt P27694: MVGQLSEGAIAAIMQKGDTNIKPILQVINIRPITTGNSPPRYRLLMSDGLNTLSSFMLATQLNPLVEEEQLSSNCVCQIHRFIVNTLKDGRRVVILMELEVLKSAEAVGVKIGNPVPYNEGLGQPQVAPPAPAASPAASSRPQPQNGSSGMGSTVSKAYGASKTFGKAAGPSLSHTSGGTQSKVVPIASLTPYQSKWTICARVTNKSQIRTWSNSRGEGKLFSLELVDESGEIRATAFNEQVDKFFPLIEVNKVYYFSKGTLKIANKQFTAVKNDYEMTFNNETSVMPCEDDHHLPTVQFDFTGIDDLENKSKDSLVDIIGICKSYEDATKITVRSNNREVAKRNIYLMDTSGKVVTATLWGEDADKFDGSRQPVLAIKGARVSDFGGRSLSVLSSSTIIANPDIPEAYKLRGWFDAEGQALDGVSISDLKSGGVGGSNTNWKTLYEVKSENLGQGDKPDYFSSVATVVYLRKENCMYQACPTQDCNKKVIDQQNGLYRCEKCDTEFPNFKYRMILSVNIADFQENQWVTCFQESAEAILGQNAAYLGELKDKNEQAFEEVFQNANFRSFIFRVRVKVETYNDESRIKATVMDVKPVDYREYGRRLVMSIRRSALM
UniProt P13010: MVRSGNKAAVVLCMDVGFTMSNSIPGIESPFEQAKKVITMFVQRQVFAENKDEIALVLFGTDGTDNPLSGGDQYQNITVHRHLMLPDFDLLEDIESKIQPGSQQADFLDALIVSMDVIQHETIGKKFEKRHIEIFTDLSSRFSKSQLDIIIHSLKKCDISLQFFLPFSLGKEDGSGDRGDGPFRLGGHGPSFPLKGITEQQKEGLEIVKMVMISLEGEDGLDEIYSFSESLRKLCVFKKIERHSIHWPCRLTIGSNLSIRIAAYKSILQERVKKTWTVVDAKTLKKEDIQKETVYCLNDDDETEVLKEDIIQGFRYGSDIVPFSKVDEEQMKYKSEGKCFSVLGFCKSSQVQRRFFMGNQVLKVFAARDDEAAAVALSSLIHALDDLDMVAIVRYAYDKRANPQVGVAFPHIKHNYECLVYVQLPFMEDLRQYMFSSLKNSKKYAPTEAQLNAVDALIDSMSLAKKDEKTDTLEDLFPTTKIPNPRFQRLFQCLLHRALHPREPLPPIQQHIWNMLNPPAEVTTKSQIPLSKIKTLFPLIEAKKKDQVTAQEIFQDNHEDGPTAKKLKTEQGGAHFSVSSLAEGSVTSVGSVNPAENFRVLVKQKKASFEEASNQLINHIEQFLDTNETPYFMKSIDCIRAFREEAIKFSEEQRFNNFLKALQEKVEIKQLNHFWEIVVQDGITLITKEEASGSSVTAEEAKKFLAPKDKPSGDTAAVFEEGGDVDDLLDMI

Q: Which binding [1] does the source give for 53BP1 (from UniProt Q12888 1-1972) here?
A: binds

Q: What about the binding [2] of the same substance?
A: binds

Q: For “APEX1 (from UniProt P27695 1-318) (other; other documents disagree on this pair)”, which binding [3] is on record?
A: binds

Q: ATR (from UniProt Q13535 1-2644) was tested. Which binding [3] did it give?
A: binds

Q: How did the binding [1] turn out when AURKA (from UniProt O14965 1-403) was run?
A: binds

Q: With BLM (from UniProt P54132 1-1417) as the substance, how does the binding [1] read?
A: binds

Q: How did the binding [3] turn out when CHD1L (from UniProt Q86WJ1 1-897) was run?
A: binds

Q: And the binding [1]?
A: binds

Q: And the binding [2]?
A: binds

Q: How did the binding [1] turn out when FUS (from UniProt P35637 1-526) was run?
A: binds

Q: Which binding [1] does the source give for LIG1 (from UniProt P18858 1-919) here?
A: binds

Q: How did the binding [3] turn out when MCM2 (from UniProt P49736 1-904) was run?
A: binds

Q: For MDC1 (from UniProt Q14676 1-2089), which binding [1] is on record?
A: binds

Q: And the binding [2]?
A: binds

Q: With NBN (from UniProt O60934 1-754) as the substance, how does the binding [1] read?
A: binds

Q: For “PARP2 (from UniProt Q9UGN5 1-583) (enzyme)”, which binding [2] is on record?
A: binds

Q: Which binding [3] does the source give for PCNA (from UniProt P12004 1-261) here?
A: binds

Q: For PRKDC (from UniProt P78527 1-4128), which binding [1] is on record?
A: binds

Q: How did the binding [1] turn out when RAD50 (from UniProt Q92878 1-1312) was run?
A: binds

Q: With RFC2 (from UniProt P35250 1-354) as the substance, how does the binding [2] read?
A: binds

Q: With RFC5 (from UniProt P40937 1-340) as the substance, how does the binding [2] read?
A: binds

Q: RNASEH2A (from UniProt O75792 1-299) was tested. Which binding [3] did it give?
A: binds

Q: With RPA1 (from UniProt P27694 1-616) as the substance, how does the binding [1] read?
A: binds

Q: And the binding [2]?
A: binds

Q: For SRSF1 (from UniProt Q07955 1-248), which binding [3] is on record?
A: binds

Q: For UIMC1 (from UniProt Q96RL1 1-719), which binding [1] is on record?
A: binds

Q: Which binding [3] does the source give for VCP (from UniProt P55072 1-806) here?
A: binds

Q: How did the binding [2] turn out when XRCC1 (from UniProt P18887 1-633) was run?
A: binds

Q: How did the binding [3] turn out when XRCC5 (from UniProt P13010 1-732) was run?
A: binds

Q: What about the binding [4] of the same substance?
A: binds

Q: What about the binding [1] of the same substance?
A: binds

Q: And the binding [2]?
A: binds

Q: Which binding [4] does the source give for XRCC6 (from UniProt P12956 1-609) here?
A: binds

Q: What about the binding [2] of the same substance?
A: binds

Q: With “endogenous PARP1 (from UniProt P09874 1-1014) (enzyme)” as the substance, how does the binding [5] read?
A: binds

Q: And the binding [4]?
A: binds

Q: And the binding [2]?
A: binds

Q: For “endogenous Targeting protein for Xklp2 (TPX2) (from UniProt Q9ULW0 1-747)”, which binding [3] is on record?
A: binds

Q: And the binding [1]?
A: binds

Q: Which binding [1] does the source give for “single-stranded DNA-binding protein RPA2 (from UniProt P15927 1-270)” here?
A: binds

— publication PMC9723622
